# Library screening results

A: 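Whole-cell assay for inhibitors of Mycobacterium tuberculosis growth, labelled Cornell in the record; the read-out is not stated. The concentration is filed as 10 mM, unlikely as a test dose, so the dose is not known. Higher means stronger inhibition (inferred from two other growth screens of the library). Size under these conditions: about 53,000 compounds, about 900 of them at 50% or above in at least one test.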
B: 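Assay on Mycobacterium tuberculosis, filed only as a heat shock assay from Cornell; the read-out is not stated. The concentration is filed as 10 mM, unlikely as a test dose, so the dose is not known. Higher reads as stronger inhibition (inferred: compounds with an IC50 in retests scored well above the rest). Size under these conditions: about 69,000 compounds, about 930 of them at 50% or above in at least one test.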

Values are the deposited “Percent Effect”, in %.
The record does not define 0% and 100%; most values in the screen are far below 50% and negative numbers occur (in some assays of this library far below -100).
Compounds were drawn at random from those tested, without regard to their results.
A dash means the value is not listed here; it may have been measured.

With O=C1NCCN1C(CNS(=O)(=O)C1CC1)Cc1cccc(F)c1 (centres unmarked) the screen gave A: 21.82%; B: 2.646%.
With CNS(=O)(=O)c1cccc(CNC(=O)NCC2CCOC2)c1 (centres unmarked) the screen gave A: -26.51%; B: 21.2%.
With COc1cc(N2CCC3(CC2)CNC(=O)CO3)ncn1 the screen gave A: 3.588%; B: 25.49%.
With CCC(NCc1ccccc1)c1ccccc1OCC(=O)NC (centres unmarked) the screen gave B: -2.341%.
With CN(C)CCOCC1CN(Cc2ccoc2)Cc2nnn(C)c21.O=C(O)C(F)(F)F.O=C(O)C(F)(F)F (centres unmarked) the screen gave A: 3.558%; B: -17.74%.
With Cc1cn2nc(N3CCCC3C(=O)N3CCSCC3)sc2n1 (centres unmarked) the screen gave A: 6.783%; B: -17.77%.
With Oc1ccc(-c2c(-c3ccccc3)ncn2C[C@H]2CCCN2)cc1 the screen gave A: 1.303%; B: 0%.
With CCOc1ccc(Oc2cc(N)ccn2)cc1 the screen gave A: 0.358%; B: 19.31%.
With Cc1ccc(CN2CC[C@@H](N(C)C(C)C)[C@@H]2Cc2ccccc2)o1 the screen gave A: 41.81%; B: -18.77%.
With Cc1nnc(N2CCCC3(CN(c4cccc(F)c4)CCO3)C2)o1 (centres unmarked) the screen gave A: 18.23%; B: 14.49%.
With COC1CCN(C(=O)c2c(Cl)c3ccccc3n2C)CC1 the screen gave A: 49.28%; B: 6.251%.
With CCOCCN1CCN(Cc2nnc(-c3ccco3)o2)CC1 the screen gave A: -4.315%; B: -20.75%.
With [H][C@@]12CS(=O)(=O)C[C@]1([H])N(C(=O)c1ccc3c(c1)NC(=O)CN3)CCN2CC the screen gave A: 17.78%; B: 24.84%.
With COc1ccc(S(=O)(=O)Cc2noc(CC(C)C)n2)cc1 the screen gave B: 12.34%.
With CC(C)(C)n1cc(C2=CCN(CCN3CCCCCC3)CC2)cn1 the screen gave A: 16.65%; B: 11.47%.
With Cc1cc(C)nc(C2CCCNC2)n1.Cl.Cl (centres unmarked) the screen gave A: -16.44%; B: -4.478%.
With CC(C)c1nnc(CN2CCN(CC(O)c3ccccc3)CC2)o1 (centres unmarked) the screen gave B: -2.709%.
With Cc1cc(NC(=O)NC(C)CO)ccc1OCC(F)(F)F (centres unmarked) the screen gave A: 11.03%; B: -0.1197%.
With Cc1nc(CNC(=O)Cn2nc(-c3ccc(F)cc3)oc2=O)cs1 the screen gave B: 11.71%.
With CC(NCc1ccc(-c2ccc(Cl)cc2)o1)c1nnc2n1CCC2 (centres unmarked) the screen gave B: 11.47%.
With CC(Cn1cccn1)NC(=O)c1ccsc1 (centres unmarked) the screen gave A: 3.214%; B: 8.532%.
With CC(C)(C)OC(=O)N1CCN(c2nnc(Br)s2)CC1 the screen gave A: 0.7698%; B: -4.459%.
With COc1ccc(NC(=O)CNc2cccc3c2CCCC3)c(OC)c1 the screen gave A: 76.54%; B: 6.564%.
With CCCc1cc(=O)[nH]c(-c2cccc(CN3CCN4CCCC4C3)c2)n1 (centres unmarked) the screen gave A: 8.017%; B: 0.7345%.
With Cc1nnc(CN(C)Cc2nc3c(s2)CCCC3)o1 the screen gave B: -14.32%.
With CCn1cc(CN2CCC(O)(Cn3ccc4ncccc43)CC2)cn1 the screen gave A: 18.05%; B: 3.745%.
With O=C(O)C(F)(F)F.[H][C@@]12CN(C(=O)c3ccc(F)cc3)C[C@]1([H])OCCN2c1ncccn1 the screen gave A: 20.29%; B: 1.827%.
With CCc1nc(Cn2ccnc2-c2nccn2C)no1 the screen gave A: 14.19%; B: -1.494%.
With CCOCCN1CCN(Cc2nc(C3CC3)no2)CC1CC (centres unmarked) the screen gave A: -8.036%; B: -1.964%.
With CCCn1cc(NC(=O)c2ccc(S(=O)(=O)CC)cc2)ccc1=O the screen gave B: -9.862%.
With Cc1nc(C)n(C2CCCN(C(=O)c3cc4ccccc4n3C)C2)n1 (centres unmarked) the screen gave B: -10.44%.
With Cc1nn(C)c(Cl)c1C1CCCN1C(=O)c1cccc(C#N)c1 (centres unmarked) the screen gave A: 19.82%; B: -9.544%.
With C=C/C=c1\c(=C/C)oc2c(NCc3ccccc3)ncnc12 the screen gave A: 8.559%; B: -0.4342%.
With Cc1ccc(CSCCn2nc3ccccn3c2=O)cc1 the screen gave A: -10.04%; B: 5.789%.
With CC(=O)Nc1ccc(-c2cn(CCn3c(C)cc(C)nc3=O)nn2)cc1 the screen gave A: 32.29%; B: 4.177%.
With Cc1nn(C)c(Cl)c1C1CCCN1CC(=O)NC1CCCCC1 (centres unmarked) the screen gave A: 29.78%; B: -5.623%.
With CCN(C(=O)Cc1ccc(NC(=O)NC2CC2)cc1)c1ccccc1 the screen gave A: -6.305%; B: 13.36%.
With COCC1CN(S(=O)(=O)c2ccc(C)cc2)Cc2c1cnn2C.O=C(O)C(F)(F)F (centres unmarked) the screen gave A: 3.896%; B: -23.19%.
With Cc1cnn(CCC(=O)N2CCN(c3nccs3)CC2)c1 the screen gave B: -13.61%.
With CN(C)CC1CN(Cc2cccc(C#N)c2)Cc2nccn2C1.O=C(O)C(F)(F)F.O=C(O)C(F)(F)F (centres unmarked) the screen gave A: 4.213%; B: -5.749%.
With CCc1ccsc1C(=O)N1CCCN(Cc2cnn(CC)c2)CC1 the screen gave B: -2.616%.
With COc1cccc(CN2CCC3(CC2)CCN(c2ncc(F)cn2)C3)c1.O=C(O)C(F)(F)F the screen gave A: 27.16%; B: -1.747%.

The last 5 entries again:

Compound,A,B
COCC1CN(S(=O)(=O)c2ccc(C)cc2)Cc2c1cnn2C.O=C(O)C(F)(F)F (centres unmarked),3.896%,-23.19%
Cc1cnn(CCC(=O)N2CCN(c3nccs3)CC2)c1,-,-13.61%
CN(C)CC1CN(Cc2cccc(C#N)c2)Cc2nccn2C1.O=C(O)C(F)(F)F.O=C(O)C(F)(F)F (centres unmarked),4.213%,-5.749%
CCc1ccsc1C(=O)N1CCCN(Cc2cnn(CC)c2)CC1,-,-2.616%
COc1cccc(CN2CCC3(CC2)CCN(c2ncc(F)cn2)C3)c1.O=C(O)C(F)(F)F,27.16%,-1.747%

Source: ChEMBL document CHEMBL3988442, “University of Dundee, Small-Polar-MMV Screening Library” (2021).